Laboratory results taken from PubChem BioAssay AID493014 (National Center for Advancing Translational Sciences (NCATS), 2011).
The list shows a part of the results. Further columns of the screen follow, without active or inactive calls. The list favours compounds with an active or inconclusive main result. Potencies come from curve fits of mixed quality, noted in brackets.

Assay: qHTS Assay to Find Inhibitors of Chronic Active B-Cell Receptor Signaling
Settings: ABC-DLBCL IkBa-CBG/CBR reporter, luminescence ratio (green luciferase fused to IkBa over red control in TMD8 lymphoma cells), 4 h
Outline: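 TMD8 human ABC-DLBCL cells with doxycycline-inducible IκBα–green luciferase fusion and unfused red luciferase, in 0.5% FBS medium; compounds up to 46 uM, 4 h at 37C. Green/red luminescence ratio, filter-overlap corrected, fitted to concentration-response curves.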

[1] = measured here: CBR red luminescence, cell number
[2] = measured here: IkBa-CBG green luminescence

Row | Structure (SMILES) | AC50 [1] | AC50 [2]
1 | O=C(NNC(=S)Nc1ccccc1Cl)c1ccccc1 | 4.47 µM [falling, partial curve] | 
2 | CCOC(=O)C(CSCC(=O)c1ccc(Cl)cc1)NC(=O)OC(C)(C)C (centres undefined) | 4.11 µM [falling, single point] | 
3 | COc1cc(C(CCN2CCOCC2)c2c(OC)cc(OC)c3c(-c4ccccc4)cc(=O)oc23)cc(OC)c1OC (centres undefined) | 6.51 µM [rising, single point] | 18.4 µM [falling, partial curve]
4 | O=C1CS/C(=N/N=C/c2ccco2)N1Cc1ccc(F)cc1 | 17.8 µM [falling, single point] | 
5 | CCOc1ccccc1N(C)C(=O)c1cc2c(=O)n(CC)c3ccccc3c2s1 | 11.2 µM [falling, single point] | 
6 | CC1CCN(S(=O)(=O)c2ccc(C(=O)Nc3ccccc3-c3nc4ccccc4[nH]3)cc2)CC1 | 1.64 µM [rising, full curve, poor fit] | 
7 | Cc1ccc2oc(-c3cccc(NC(=S)NC(=O)c4cccs4)c3)nc2c1 | 2.91 µM [rising, partial curve] | 
8 | Cc1oc(-c2ccccc2)cc1C(=O)Nc1cccc2ccccc12 | 11.2 µM [falling, single point] | 
9 | O=C(/C=C/c1ccccc1)N/C(=C/c1ccccc1)C(=O)Nc1ccccc1O | 0.112 µM [falling, full curve, poor fit] | 
10 | O=C(Nc1nnc(-c2ccc3c(c2)CCCC3)o1)c1ccccc1 | 29.1 µM [falling, single point] | 
11 | O=C(Nc1nc2nccc(-c3ccccc3)n2n1)c1ccccc1 | 2.51 µM [falling, full curve, poor fit] | 
12 | C#CCOCCOCCOCCNc1nc(N2CCN(C(=O)CCCCCCCCCCNC(=O)[C@H]([C@@H](C)CC)n3cc(CCCCCN)nn3)CC2)nc(N2CCN(C(=O)CCCCCCCCCCNC(=O)[C@H](CO)n3cc(CCCCCN)nn3)CC2)n1 | 29.1 µM [rising, single point] | 
13 | COc1ccc(N=C2C(=Nc3ccc(OC)cc3)N(c3ccc(OC)cc3)C(=S)N2c2ccccc2)cc1 | 23.1 µM [falling, single point] | 
14 | O=C(C1CCCN(S(=O)(=O)c2ccc(Cl)cc2)C1)N(Cc1cccs1)C1CC1 (centres undefined) | 25.9 µM [falling, partial curve, poor fit] | 
15 | Cc1ccc(C(=O)NCCSCc2ccc(Cl)cc2Cl)cc1[N+](=O)[O-] | 5.17 µM [rising, single point] | 
16 | CCc1cc(-c2[nH]ncc2-c2ccc3c(c2)OCO3)c(O)cc1O | 7.94 µM [falling, partial curve] | 
17 | COc1ccc(Cl)cc1-c1nc(SCC(=O)NC(C)C(C)C)n[nH]1 (centres undefined) | 35.5 µM [falling, single point] | 
18 | Cc1cccnc1NC(=S)Nc1ccc(Br)cc1Cl | 7.08 µM [rising, full curve] | 
19 | O=C(Nc1cc(=O)[nH]c(=O)[nH]1)c1cc(Cl)ccc1Cl | 11.2 µM [rising, partial curve] | 12.6 µM [falling, single point]
20 | COc1ccccc1C(=O)Nc1c[nH]c(=O)[nH]c1=O | 28.2 µM [falling, single point] | 
21 | CCN(Cc1ccccc1)c1ccc(/C=C(\C#N)c2ccccn2)cc1 | 11.6 µM [rising, partial curve] | 

Five entries picked at random from the list so far:
Row | Structure (SMILES) | AC50 [1] | AC50 [2]
5 | CCOc1ccccc1N(C)C(=O)c1cc2c(=O)n(CC)c3ccccc3c2s1 | 11.2 µM [falling, single point] | 
4 | O=C1CS/C(=N/N=C/c2ccco2)N1Cc1ccc(F)cc1 | 17.8 µM [falling, single point] | 
14 | O=C(C1CCCN(S(=O)(=O)c2ccc(Cl)cc2)C1)N(Cc1cccs1)C1CC1 (centres undefined) | 25.9 µM [falling, partial curve, poor fit] | 
3 | COc1cc(C(CCN2CCOCC2)c2c(OC)cc(OC)c3c(-c4ccccc4)cc(=O)oc23)cc(OC)c1OC (centres undefined) | 6.51 µM [rising, single point] | 18.4 µM [falling, partial curve]
16 | CCc1cc(-c2[nH]ncc2-c2ccc3c(c2)OCO3)c(O)cc1O | 7.94 µM [falling, partial curve] | 

Additional structures:

Row | Structure (SMILES) | AC50 [1] | AC50 [2]
22 | CC(c1cccs1)N(C)Cc1nc(CCc2ccccc2)no1 (centres undefined) | 7.94 µM [rising, partial curve] | 
23 | CCN1CCN(c2ccc(S(=O)(=O)N3CCCCC3)cc2NC(=O)/C=C/c2cccc(OC)c2OC)CC1 | 25.1 µM [falling, single point] | 
24 | Cn1c(CSCc2ccc(F)cc2)nnc1SCC(=O)Nc1nccs1 | 2.82 µM [falling, full curve] | 
25 | C=CCNc1nc2c(c(=O)[nH]c(=O)n2C)n1CC(O)COc1ccc2ccccc2c1 (centres undefined) | 0.708 µM [rising, full curve, poor fit] | 
26 | CC1CCCC(C)N1S(=O)(=O)c1ccc(NC(=O)CCn2cnc3ccccc3c2=O)cc1 (centres undefined) | 2.59 µM [rising, full curve, poor fit] | 
27 | Cc1cc(C(=O)COC(=O)Cc2n[nH]c(=O)c3ccccc23)c(C)n1-c1ccc2c(c1)OCCO2 | 29.1 µM [falling, single point] | 
28 | CCOC(=O)CCC(=O)Nc1cc(S(=O)(=O)N2CCOCC2)ccc1N1CCCCC1 | 16.4 µM [rising, partial curve, poor fit] | 
29 | CCC(C)NC(=O)c1cc(Cl)ccc1OC (centres undefined) | 16.4 µM [rising, single point] | 
30 | CCOc1ccc(Br)cc1S(=O)(=O)Nc1ccc(C(=O)OCC(=O)N(C)c2ccccc2)cc1 | 8.2 µM [falling, partial curve, poor fit] | 
31 | CCCN1C(=O)/C(=C/c2ccccc2OCc2ccc(C(=O)O)cc2)NC1=S | 10 µM [falling, partial curve, poor fit] | 
32 | Cc1cc(C(=O)C(=O)N(C)C)c(C)n1-c1ccc(Cl)c(Cl)c1 | 7.08 µM [falling, partial curve, poor fit] | 
33 | CCc1nn2c(N)c(/C=C3\C=Nc4ccccc43)c(=O)nc2s1 | 0.731 µM [rising, partial curve] | 
34 | CC(C)Nc1nc2nonc2nc1Nc1ccccc1 | 12.6 µM [falling, partial curve, poor fit] | 
35 | Cc1ccccc1C(=O)c1cccn1CC(=O)NCCCN1CCc2ccccc2C1 | 35.5 µM [falling, partial curve, poor fit] | 
36 | Fc1ccc2c(c1)C(c1ccncc1)=NNC(c1ccc(Br)cc1)=N2 | 32.6 µM [falling, single point] | 
37 | Cc1cccc(NC(=S)NC2CCCC2)c1 | 3.66 µM [rising, single point] | 14.6 µM [falling, partial curve, poor fit]
38 | O=C(NC1CCCCC1)N1CCN(c2ncccn2)CC1 | 16.4 µM [falling, partial curve, poor fit] | 
39 | CN(Cc1ccsc1)C(=O)CCc1nnc(CCCc2ccccc2)o1 | 1.78 µM [rising, full curve, poor fit] | 
40 | Cc1noc(C)c1CSc1ccc2ccccc2n1 |  | 18.4 µM [falling, partial curve, poor fit]
41 | COc1ccc(OC)c(C2C(C#N)=C(N)Oc3c2c(C)nn3-c2cccc(Cl)c2)c1 (centres undefined) |  | 11.2 µM [rising, partial curve, poor fit]
42 | Cc1cc(C(=O)COc2ccccc2[N+](=O)[O-])c(C)n1-c1cccc(S(=O)(=O)N2CCOCC2)c1 | 16.4 µM [falling, partial curve, poor fit] | 

Row | Structure (SMILES) | AC50 [1] | AC50 [2]
43 | COc1ccc(NC(=O)c2cc(N3C(=O)C4C5CCC(C5)C4C3=O)ccc2Cl)c(OC)c1 (centres undefined) | 35.5 µM [falling, partial curve, poor fit] | 
44 | COc1ccc(C2CC(C(F)(F)F)n3ncc(C(=O)NCC4CCCO4)c3N2)cc1OC (centres undefined) | 20 µM [rising, single point] | 
45 | O=C(Nc1ccc2c(c1)CCC2)c1cccc(S(=O)(=O)Nc2ccccc2Cl)c1 | 29.1 µM [falling, single point] | 
46 | CC(C)(C)c1ccc(CSc2nnc(-c3ccccn3)n2Cc2ccco2)cc1 | 29.1 µM [falling, single point] | 
47 | O=C(NCc1ccccc1)c1ccc2c(=O)n(CCCN3CCCC3=O)c(=S)[nH]c2c1 | 0.13 µM [rising, full curve, poor fit] | 
48 | CCOC(=O)c1cnc2ccccc2c1Nc1cccc(OC)c1 | 14.1 µM [falling, partial curve, poor fit] | 
49 | Cc1sc(NC(=O)CS(=O)(=O)c2ccccc2)c(C(N)=O)c1C | 18.4 µM [falling, single point] | 
50 | CS(=O)(=O)N(CC(=O)NCCSc1ccc(Cl)cc1)c1ccc2c(c1)OCO2 | 2.31 µM [rising, partial curve, poor fit] | 
51 | COc1ccc(CNC(=S)NCc2ccc(F)cc2)cc1 | 35.5 µM [falling, single point] | 
52 | Cc1onc(-c2ccccc2Cl)c1C(=O)Nc1nc2c(s1)CCCC2 | 11.2 µM [falling, partial curve] | 
53 | COc1ccc(NC(=O)C(=O)Nc2cccc3cccnc23)cc1OC | 0.316 µM [falling, full curve, poor fit] | 
54 | CCN(CC)c1ccc(/C=C2/SC(=O)N(C(C)C)C2=O)o1 | 20.6 µM [falling, partial curve] | 
55 | O=C(O)CSc1cc(C(F)(F)F)nc(-c2ccccn2)n1 | 3.55 µM [falling, partial curve, poor fit] | 
56 | Cn1ncc2c(Nc3ccc(-c4ccccc4)cc3)ncnc21 | 3.98 µM [rising, partial curve] | 
57 | COCCNC(=O)Cn1cc(/C=N/NC(=O)c2ccc(Oc3ccc(O)cc3)cc2)c2ccccc21 | 14.1 µM [falling, single point] | 
58 | CCN1CCN(c2cc(-c3ccccc3)nc3cc(-c4cccc(F)c4)nn23)CC1 | 5.17 µM [falling, partial curve, poor fit] | 
59 | Cc1cc(-c2ccccc2)nc(N/N=C/c2ccc(O)cc2)n1 | 18.4 µM [falling, partial curve] | 
60 | N#Cc1ccccc1NC(=O)c1ccc(-c2ccccc2Cl)o1 | 23.1 µM [falling, single point] | 
61 | CC(C)Cn1c(=O)[nH]c(=O)c2c(C(F)(F)F)cc(-c3ccccc3)nc21 | 6.31 µM [rising, single point] | 
